For at least one entry, the source does not settle the construct or the ends of the probe. For some assays here: At least one verdict rests on a figure or table, not on a statement of the authors.
Columns and labels:
[1] = system: GST-ZmDREB2.1/2A (Zea mays (B73)); assay: EMSA; settings: positive control, similar to ZmDREB2.7; LightShift Chemiluminescent EMSA Kit (Thermo Scientific) per manufacturer; pH and temperature not stated; recombinant protein; protein details: GST N-terminal (pGEX4T-1); label: 5' biotin
[2] = system: GST-ZmDREB2.7 (Zea mays (B73)); assay: EMSA; settings: similar affinity to DRE2, competed by 10-500x cold probe; LightShift Chemiluminescent EMSA Kit (Thermo Scientific) per manufacturer; pH and temperature not stated; recombinant protein; protein details: GST N-terminal (pGEX4T-1); label: 5' biotin

Sequence: TTGATACTACCGACATGAGTTGATACTACCGACATGAGT (double strand) [DRE1 (ACCGAC)]
- binding result [1]: binds
- binding result [2]: binds
